Source: the supplement of paper PMC10338343
± gives the standard deviation. This is a selection; strong and weak results do not stand in their true shares. Many entries were measured with a wide error. This is one part of the list.

Key:
[1] = test system: MIWI (PIWIL1) piRISC loaded with L1MC piRNA (30 nt); assay: pre-steady-state target cleavage rate (min^-1); higher = faster piRNA-guided slicing of the target; conditions: guide: L1MC piRNA 5'p-UAACUAAAUACUAUGCAAGCUGUAGGUCCU
Procedure, shortened: (§1)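 The pre-steady-state cleavage rate came from a burst-and-steady-state fit to pooled data from three Cleave-'n-Seq trials, in which uncleaved targets were sequenced and normalised to depth and to weakly complementary targets. Each reaction held 0.1 nM transcribed, DNA-blocked target RNA library and 1 nM active affinity-purified piRISC carrying one synthetic guide, with or without 500 nM GTSF1 partner protein, in HEPES–potassium acetate buffer at 33 °C for 0–8 or 0–960 min. k3 was capped at 0.0001 min^-1.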

[2] = test system: EfPiwi piRISC loaded with L1MC piRNA (26 nt); assay: pre-steady-state target cleavage rate (min^-1); guide: L1MC piRNA 5'p-UAACUAAAUACUAUGCAAGCUGUAGG; higher = faster piRNA-guided slicing of the target
Procedure, shortened: as §1

[3] = test system: MILI (PIWIL2) piRISC loaded with L1MC piRNA (26 nt); assay: pre-steady-state target cleavage rate (min^-1); MIWI and MILI are mouse PIWI proteins and EfPiwi is from a freshwater sponge; tags in brackets are library labels; higher = faster piRNA-guided slicing of the target; conditions: guide: L1MC piRNA 5'p-UAACUAAAUACUAUGCAAGCUGUAGG
Procedure, shortened: as §1

[4] = auxiliary factor: 500 nM mouse GTSF1
[5] = auxiliary factor: none (no GTSF1)
[6] = auxiliary factor: 500 nM Ephydatia muelleri Gtsf1
[7] = auxiliary factor: none (no Gtsf1)

UCCUCCUACAGCUUGCAUAGUACUUUAGUUA
pre-steady-state target cleavage rate [1, 4]: 0.588 ± 0.024 | pre-steady-state target cleavage rate [1, 5]: 0.00867 ± 0.0017 | pre-steady-state target cleavage rate [2, 6]: 0.0115 ± 0.0051

UCCUGGAUGUCCUUGAUAGUAUUUAGUUA
pre-steady-state target cleavage rate [1, 4]: 0.00369 ± 0.0043 | pre-steady-state target cleavage rate [1, 5]: 0.00174 ± 0.0034 | pre-steady-state target cleavage rate [2, 6]: 0.000418 ± 0.0083

UCCUGGAUGUGCUUGGUAAGUAUUUAGUUA
pre-steady-state target cleavage rate [1, 4]: 0.00216 ± 0.006 | pre-steady-state target cleavage rate [1, 5]: 0.00163 ± 0.0062 | pre-steady-state target cleavage rate [2, 6]: 0.000283 ± 0.02

UCCUGGUACACCUUGCAUAGUAUUUAGUAA
pre-steady-state target cleavage rate [1, 4]: 0.334 ± 0.078 | pre-steady-state target cleavage rate [1, 5]: 0.0104 ± 0.0044 | pre-steady-state target cleavage rate [2, 6]: 0.00351 ± 0.0028

UCCUGGAUGUCGAACGUUUGUUUUUAGUUA
pre-steady-state target cleavage rate [1, 4]: 0.000188 ± 0.044 | pre-steady-state target cleavage rate [1, 5]: 0.000334 ± 0.015 | pre-steady-state target cleavage rate [2, 7]: 0.000122 ± 0.058

UCCUGGAUCAGCUUGCAUAAGUAUUUAGUUA
pre-steady-state target cleavage rate [1, 4]: 0.00211 ± 0.0066 | pre-steady-state target cleavage rate [1, 5]: 0.000353 ± 0.0085 | pre-steady-state target cleavage rate [2, 6]: 0.00278 ± 0.0031

UCCUGGAUGUCGUUGCAUUGUAUUUAGUUA
pre-steady-state target cleavage rate [1, 4]: 0.00118 ± 0.007 | pre-steady-state target cleavage rate [1, 5]: 0.000693 ± 0.0097 | pre-steady-state target cleavage rate [2, 6]: 0.00116 ± 0.0063

UCCUGGAUGUCGAAGCUUAGUUUUUAGUUA
pre-steady-state target cleavage rate [1, 4]: 0.000532 ± 0.0096 | pre-steady-state target cleavage rate [1, 5]: 0.00036 ± 0.012 | pre-steady-state target cleavage rate [2, 6]: 0.000135 ± 0.033

UCCUGCUACAGCUCUGCAUAGUAUUUAGUUA
pre-steady-state target cleavage rate [1, 4]: 0.851 ± 0.058 | pre-steady-state target cleavage rate [1, 5]: 0.0138 ± 0.003 | pre-steady-state target cleavage rate [2, 6]: 0.0151 ± 0.0038

UCCUGGAUGUCGUUGCAUAGCUAUUUAGUUA
pre-steady-state target cleavage rate [1, 4]: 0.00163 ± 0.006 | pre-steady-state target cleavage rate [1, 5]: 0.000767 ± 0.013 | pre-steady-state target cleavage rate [2, 6]: 0.000324 ± 0.0095

UCCUCCUACAGCUUACAUAGUAUUUAGUUA
pre-steady-state target cleavage rate [1, 4]: 1.14 ± 0.031 | pre-steady-state target cleavage rate [1, 5]: 0.0275 ± 0.0041 | pre-steady-state target cleavage rate [2, 6]: 0.106 ± 0.028

UCCUCCUCAGCUUGCAUAGUAUUUAGUUA
pre-steady-state target cleavage rate [1, 4]: 1.05 ± 0.027 | pre-steady-state target cleavage rate [1, 5]: 0.0482 ± 0.009 | pre-steady-state target cleavage rate [2, 6]: 0.0735 ± 0.017

UCCUCGUACAGCUUGCAAAGUAUUUAGUUA
pre-steady-state target cleavage rate [1, 4]: 1.32 ± 0.048 | pre-steady-state target cleavage rate [1, 5]: 0.0595 ± 0.012 | pre-steady-state target cleavage rate [2, 6]: 0.143 ± 0.032

UCCUGGAUGUGCUUGGAUAGUAUUAAGUUA
pre-steady-state target cleavage rate [1, 4]: 0.0897 ± 0.022 | pre-steady-state target cleavage rate [1, 5]: 0.00634 ± 0.0041 | pre-steady-state target cleavage rate [2, 6]: 0.000392 ± 0.015

UCCUGGAUGUGCUUGCAAUGUAUUUAGAAA
pre-steady-state target cleavage rate [1, 4]: 0.00144 ± 0.0066 | pre-steady-state target cleavage rate [1, 5]: 0.00132 ± 0.0061 | pre-steady-state target cleavage rate [2, 6]: 0.000387 ± 0.011

UCCUCCUACAGGUUGCAAAGUAUUUAGUUA
pre-steady-state target cleavage rate [1, 4]: 1.29 ± 0.06 | pre-steady-state target cleavage rate [1, 5]: 0.0159 ± 0.0033 | pre-steady-state target cleavage rate [2, 6]: 0.0547 ± 0.011

UCCUGGAUGUCGAAGCAUAGUUUUUUGUUA
pre-steady-state target cleavage rate [1, 4]: 0.00084 ± 0.0088 | pre-steady-state target cleavage rate [1, 5]: 0.000636 ± 0.0092 | pre-steady-state target cleavage rate [2, 6]: 0.00014 ± 0.032

UCCUGGAACAGGUAGCAUAGUAUUUAGUUA
pre-steady-state target cleavage rate [1, 4]: 0.266 ± 0.026 | pre-steady-state target cleavage rate [1, 5]: 0.00407 ± 0.0017 | pre-steady-state target cleavage rate [2, 6]: 0.00892 ± 0.0028

UCCUGCUUGAGCUUGCAUAGUAUUUAGUAA
pre-steady-state target cleavage rate [1, 4]: 0.491 ± 0.051 | pre-steady-state target cleavage rate [1, 5]: 0.0206 ± 0.004 | pre-steady-state target cleavage rate [2, 6]: 0.00772 ± 0.0023

UCCUGGAACAGCUUGCAUGUAUUUAGUUA
pre-steady-state target cleavage rate [1, 4]: 0.103 ± 0.015 | pre-steady-state target cleavage rate [1, 5]: 0.00591 ± 0.0032 | pre-steady-state target cleavage rate [2, 7]: 0.00227 ± 0.0055

UCCUGGAUGUCGAAGCUAUAGUAUUUAGUUA
pre-steady-state target cleavage rate [1, 4]: 0.000123 ± 0.055 | pre-steady-state target cleavage rate [1, 5]: 0.000663 ± 0.0062 | pre-steady-state target cleavage rate [2, 6]: 0.000282 ± 0.0088

UCCUCCUACAGCUUGUCAUAGUAUUUAGUUA
pre-steady-state target cleavage rate [1, 4]: 0.44 ± 0.046 | pre-steady-state target cleavage rate [1, 5]: 0.0017 ± 0.0027 | pre-steady-state target cleavage rate [2, 6]: 0.0546 ± 0.016

UCCUGGAUGUCGAACCCAUAGUAUUUAGUUA
pre-steady-state target cleavage rate [1, 4]: 0.00121 ± 0.0032 | pre-steady-state target cleavage rate [1, 5]: 0.00132 ± 0.0041 | pre-steady-state target cleavage rate [2, 6]: 0.00191 ± 0.0045

UCCUGGAUGUCGUUGCAUAGUAUAUAGUUA
pre-steady-state target cleavage rate [1, 4]: 0.00163 ± 0.0056 | pre-steady-state target cleavage rate [1, 5]: 0.00154 ± 0.0047 | pre-steady-state target cleavage rate [2, 6]: 0.00235 ± 0.0045

UCCUGGAUCAGCAACCAUAGUAUUUAGAAA
pre-steady-state target cleavage rate [1, 4]: 0.0016 ± 0.0076 | pre-steady-state target cleavage rate [1, 5]: 0.000516 ± 0.015 | pre-steady-state target cleavage rate [2, 6]: 0.000506 ± 0.011

UCCUGGAUGUCGAACCAAAGUAUUUAGUAA
pre-steady-state target cleavage rate [1, 4]: 0.000314 ± 0.023 | pre-steady-state target cleavage rate [1, 5]: 0.000121 ± 0.022 | pre-steady-state target cleavage rate [2, 6]: 0.000114 ± 0.023

UCCUCCUACAGCUUGCAUUGUAUUUAGUUA
pre-steady-state target cleavage rate [1, 4]: 0.952 ± 0.034 | pre-steady-state target cleavage rate [1, 5]: 0.0245 ± 0.0055 | pre-steady-state target cleavage rate [2, 6]: 0.0211 ± 0.0059

UCCUGGAUGUCGUUGCUUAGUAUUUAGUAA
pre-steady-state target cleavage rate [1, 4]: 0.000441 ± 0.032 | pre-steady-state target cleavage rate [1, 5]: 0.00104 ± 0.0069 | pre-steady-state target cleavage rate [2, 6]: 0.00101 ± 0.0081

UCCUGGAUGUCGAACCUUAGUUUUUAGUUA
pre-steady-state target cleavage rate [1, 4]: 0.000338 ± 0.017 | pre-steady-state target cleavage rate [1, 5]: 0.000385 ± 0.01 | pre-steady-state target cleavage rate [2, 6]: 0.000337 ± 0.016

UCCUGGAACAGCUUGCAUAUGUAUUUAGUUA
pre-steady-state target cleavage rate [1, 4]: 0.00369 ± 0.0037 | pre-steady-state target cleavage rate [1, 5]: 0.00108 ± 0.0054 | pre-steady-state target cleavage rate [2, 6]: 0.00127 ± 0.003

UCCUGGAUGAGCUUGCAUUCAAUUUAGUUA
pre-steady-state target cleavage rate [1, 4]: 0.00274 ± 0.0046 | pre-steady-state target cleavage rate [1, 5]: 0.000868 ± 0.0079 | pre-steady-state target cleavage rate [2, 6]: 0.000324 ± 0.01

UCCUGGAUGUCGUUGCAUAGUUAUUUAGUUA
pre-steady-state target cleavage rate [1, 4]: 0.000971 ± 0.011 | pre-steady-state target cleavage rate [1, 5]: 0.00186 ± 0.0049 | pre-steady-state target cleavage rate [2, 6]: 0.000386 ± 0.011

UCCUGGAACACCUUGCUUAGUAUUUAGUUA
pre-steady-state target cleavage rate [1, 4]: 0.239 ± 0.032 | pre-steady-state target cleavage rate [1, 5]: 0.00546 ± 0.0019 | pre-steady-state target cleavage rate [2, 6]: 0.0036 ± 0.0033

UCCUGGAUGUCGUUCCAUAGUAUUUAGAUA
pre-steady-state target cleavage rate [1, 4]: 0.00292 ± 0.0046 | pre-steady-state target cleavage rate [1, 5]: 0.00055 ± 0.011 | pre-steady-state target cleavage rate [2, 6]: 0.000142 ± 0.021

UCCUGGAUGUCCUUGCAUAGAUUUUAGUUA
pre-steady-state target cleavage rate [1, 4]: 0.00312 ± 0.0046 | pre-steady-state target cleavage rate [1, 5]: 0.00136 ± 0.0041 | pre-steady-state target cleavage rate [2, 6]: 0.000296 ± 0.015

UCCUGGAUGUCGUUGCAUAGUAAUUUAGUUA
pre-steady-state target cleavage rate [1, 4]: 0.00149 ± 0.0077 | pre-steady-state target cleavage rate [1, 5]: 0.00218 ± 0.0051 | pre-steady-state target cleavage rate [2, 6]: 0.00164 ± 0.0072

UCCUGGAUGUGCUUUGCAUAGUAUUUAGUUA
pre-steady-state target cleavage rate [1, 4]: 0.251 ± 0.022 | pre-steady-state target cleavage rate [1, 5]: 0.0142 ± 0.0043 | pre-steady-state target cleavage rate [2, 6]: 0.00805 ± 0.003

UCCUGGAUCAGCUUGGUAAGUAUUUAGUUA
pre-steady-state target cleavage rate [1, 4]: 0.00341 ± 0.0035 | pre-steady-state target cleavage rate [1, 5]: 0.00186 ± 0.0034 | pre-steady-state target cleavage rate [2, 6]: 0.000714 ± 0.0099

UCCUGGUACAGCUUGCAUAGUAUUUACAUA
pre-steady-state target cleavage rate [3, 5]: 0.00276 ± 0.0042

UCCUGGAUGAGCUUGCAUUCAAUUUACAAA
pre-steady-state target cleavage rate [3, 5]: 0.000193 ± 0.034

UCCUGGAACAGCUUGCAUAGUAUUAAGAUA
pre-steady-state target cleavage rate [3, 5]: 0.00168 ± 0.0038

UCCUCCUAGAGCUUGCAUAGUAUUUAGAAA
pre-steady-state target cleavage rate [3, 5]: 0.000945 ± 0.0067

UCCUGGAUGUCGAACGUAUCAAUUUAGUUU [g2:g9:cont:t1U]
pre-steady-state target cleavage rate [3, 5]: 0.000222 ± 0.02

UCCUGGUACAGCUUGCAUAGUAUUUUGUAA
pre-steady-state target cleavage rate [3, 5]: 0.00164 ± 0.0048

UCCUGGAUGUCGAUGCAUAGUAUUAACUUA
pre-steady-state target cleavage rate [3, 5]: 0.000135 ± 0.036

UCCUGGAUGUCGAACGUAAGUAAUUACUUA
pre-steady-state target cleavage rate [3, 5]: 0.000111 ± 0.034

UCCUGGAACAGCUUGGAUAGUAUUUAGAUA
pre-steady-state target cleavage rate [3, 5]: 0.0018 ± 0.0035

UCCUGGAUGUCGAACGUAAGUAUUUUGUAA
pre-steady-state target cleavage rate [3, 4]: 0.000107 ± 0.05

UCCUGGAUGUCCUUGGCAUAGUAUUUAGUUA
pre-steady-state target cleavage rate [3, 4]: 0.566 ± 0.19

UCCUGGUACAGCUUGCAUAGUAUUUAGAAA
pre-steady-state target cleavage rate [3, 5]: 0.00238 ± 0.0029
